Patent US5854211A (Novo Nordisk A/S, priority 1993, dated 1998)

How the values were obtained:
[1] = solid-phase peptide synthesis; conditions: whole synthesis, scale 0.5 mmol
[2] = general procedure: Fmoc solid-phase peptide synthesis; Sasrin resin; HBTU in NMP (Fmoc); preformed symmetrical anhydrides in DMF (Boc); conditions: whole synthesis, scale 1 mmol
[3] = Fmoc solid-phase peptide synthesis; 4-(2',4'-dimethoxyphenyl-Fmoc-aminomethyl)-phenoxy resin (Novabiochem, 0.53 mmol/g); 4-methyl BHA resin (0.72 mmol/g); S; HBTU in NMP (Fmoc); preformed symmetrical anhydrides in DMF (Boc); conditions: whole synthesis, scale 0.25 mmol

Substance	isolated mass [2] [mg]	also measured
H-His-D-Trp-Ala-Trp-D-Phe.psi.(CH2 NH)Lys-NH2		isolated mass [1]: 20.6 mg
3-((3-(1-Adoc-4-imidazolyl)propionyl)-D-Trp-Ala.psi.(CH2 NH)Trp-D-Phe-NH)propylamine	73.53	
(2S)-((3-(4-Imidazolyl)propionyl)-D-Trp-Ala.psi.(CH2 NH)Trp-D-Phe-NH)-6-aminohexanol	28.54	
H-His-D-Trp.psi.(CH2 NH)Ala-Trp-D-Phe-Lys-NH2		isolated mass [3]: 6.55 mg
